At least one structure is not confirmed: it was looked up by name or label, or the drawing left a doubt.
Tested on: glycoalbumin
Assay: Relative GA value of diluted pool serum with active ingredient after 2 days at 37° C., assayed by HPLC
Parameters: species or system human
Protocol: Examples will now be described. Blood samples were diluted with diluents containing active ingredients according to the embodiments of the present disclosure, and the GA values thereof were assayed by HPLC on the same day and after two days.
First, a solution containing 10 mM of HEPES and 150 mM of NaCl was prepared. The pH was 8.0. Into this solution, an active ingredient was mixed to prepare a diluent.
In Examples 1 to 4, pool serum was used as the blood samples. The pool serum was prepared by isolating serum from venous blood taken from multiple healthy subjects and then mixing. The resulting product was mixed with the diluent described above. Into 90 μL of the diluent, 10 μL of the blood serum was introduced to prepare a 10-fold dilution (10×) assay sample.
The sample was assayed on the same day (“day 0”) or was stored in a 37° C. constant temperature reservoir for two days (“day 2”) and then assayed.
For the assay conditions, “GA detection by HPLC method” J Chromatogr 597, 271-275 (1992) was referred. Columns used were AEX:Shodex-Asahipak ES-502N (7.5 mm ID ×100 mm) (Showa Denko K.K.) and BAC:TSKgel Boronate-5PW (4.6 mm ID×100 mm) (TOSOH CORPORATION). The eluents used were glycine (JIS special grade), magnesium chloride hexahydrate (JIS special grade), D(−)-sorbitol (Wako 1st grade), ethanol (99.5%, JIS special grade), tris(hydroxymethyl)aminomethane (Tris, Biotechnology grade), and EDTA-2Na. For the analysis, Prominence HPLC system (Shimadzu Corporation) equipped with a system controller was used.
In the graphs indicated in FIGS. 2 to 5, the vertical axis indicates the ratio (relative GA value) of the GA value assayed two days (day 2) after the preparation to the GA value measured on the same day (day 0) as the preparation. When assay was carried out multiple times, the average value is indicated.
Each of the additives was dissolved in the diluent to a predetermined concentration (0.1% to 0.5%) in w/v. For example, specifically, 570 μL of the diluent containing each additive was added to 30 μL of pool serum to prepare a 20× diluted liquid. […]

In the case of NC[C@H]1O[C@H](O[C@H]2[C@H](O)[C@@H](O[C@H]3O[C@H](CO)[C@@H](O)[C@H](N)[C@H]3O)[C@H](N)C[C@@H]2N)[C@H](O)[C@@H](O)[C@@H]1O [KAN, kanamycin], the “rate of decrease of relative GA value versus No Additive” value (0.1% to 0.5% KAN) is reported as “smaller rate of decrease”, the “relative GA value (day 2 / day 0)” value (0.1 w/v% active ingredient in diluent) is reported as “about 97.6%” and the “relative GA value (day 2 / day 0)” value (0.5 w/v% active ingredient in diluent) is reported as “about 98.2%”.
